The supplement of paper PMC10849652
Some of the results follow.

Chains of the proteins cited; added tags and fusions are not shown. Lines headed by an entry give the natural chain unless they say otherwise; changes in a name come on top.
UniProt Q96CP2: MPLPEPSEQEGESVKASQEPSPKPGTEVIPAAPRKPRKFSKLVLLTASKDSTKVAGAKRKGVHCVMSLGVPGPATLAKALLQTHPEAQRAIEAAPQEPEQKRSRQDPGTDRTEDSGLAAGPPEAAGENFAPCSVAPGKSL
UniProt Q658Y4: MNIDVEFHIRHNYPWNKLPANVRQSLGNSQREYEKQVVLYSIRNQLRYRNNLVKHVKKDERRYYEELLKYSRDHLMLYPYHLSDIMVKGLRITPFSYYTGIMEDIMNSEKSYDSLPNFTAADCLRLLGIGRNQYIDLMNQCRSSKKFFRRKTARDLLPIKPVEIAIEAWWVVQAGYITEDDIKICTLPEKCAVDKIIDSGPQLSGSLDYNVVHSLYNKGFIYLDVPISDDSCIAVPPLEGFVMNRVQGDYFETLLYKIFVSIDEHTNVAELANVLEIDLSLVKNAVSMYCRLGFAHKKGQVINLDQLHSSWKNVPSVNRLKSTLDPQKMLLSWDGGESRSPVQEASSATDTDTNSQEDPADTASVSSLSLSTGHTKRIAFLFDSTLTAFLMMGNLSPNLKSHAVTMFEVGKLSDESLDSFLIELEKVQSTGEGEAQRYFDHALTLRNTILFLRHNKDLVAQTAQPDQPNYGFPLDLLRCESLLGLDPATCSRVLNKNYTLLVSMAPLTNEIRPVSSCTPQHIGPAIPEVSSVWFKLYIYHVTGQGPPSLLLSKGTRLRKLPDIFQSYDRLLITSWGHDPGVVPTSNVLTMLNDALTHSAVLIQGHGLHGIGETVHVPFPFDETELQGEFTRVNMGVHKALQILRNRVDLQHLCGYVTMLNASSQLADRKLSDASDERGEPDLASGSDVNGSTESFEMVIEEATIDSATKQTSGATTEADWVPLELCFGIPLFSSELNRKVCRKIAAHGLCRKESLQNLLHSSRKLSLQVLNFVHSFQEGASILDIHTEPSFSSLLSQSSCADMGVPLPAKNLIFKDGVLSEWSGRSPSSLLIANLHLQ
UniProt O95363: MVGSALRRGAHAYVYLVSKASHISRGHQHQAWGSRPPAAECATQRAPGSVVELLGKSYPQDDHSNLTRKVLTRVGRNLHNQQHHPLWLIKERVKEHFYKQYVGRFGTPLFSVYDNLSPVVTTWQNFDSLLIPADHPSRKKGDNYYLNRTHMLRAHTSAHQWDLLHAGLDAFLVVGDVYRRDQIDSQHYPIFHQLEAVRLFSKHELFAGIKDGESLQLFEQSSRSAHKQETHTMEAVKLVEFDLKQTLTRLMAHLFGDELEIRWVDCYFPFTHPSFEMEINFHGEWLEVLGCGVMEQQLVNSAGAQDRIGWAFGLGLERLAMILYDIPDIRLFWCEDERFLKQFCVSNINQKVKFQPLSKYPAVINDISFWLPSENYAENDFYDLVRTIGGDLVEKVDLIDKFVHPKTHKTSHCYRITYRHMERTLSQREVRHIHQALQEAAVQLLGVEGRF
UniProt P49327, whole entry, looked up: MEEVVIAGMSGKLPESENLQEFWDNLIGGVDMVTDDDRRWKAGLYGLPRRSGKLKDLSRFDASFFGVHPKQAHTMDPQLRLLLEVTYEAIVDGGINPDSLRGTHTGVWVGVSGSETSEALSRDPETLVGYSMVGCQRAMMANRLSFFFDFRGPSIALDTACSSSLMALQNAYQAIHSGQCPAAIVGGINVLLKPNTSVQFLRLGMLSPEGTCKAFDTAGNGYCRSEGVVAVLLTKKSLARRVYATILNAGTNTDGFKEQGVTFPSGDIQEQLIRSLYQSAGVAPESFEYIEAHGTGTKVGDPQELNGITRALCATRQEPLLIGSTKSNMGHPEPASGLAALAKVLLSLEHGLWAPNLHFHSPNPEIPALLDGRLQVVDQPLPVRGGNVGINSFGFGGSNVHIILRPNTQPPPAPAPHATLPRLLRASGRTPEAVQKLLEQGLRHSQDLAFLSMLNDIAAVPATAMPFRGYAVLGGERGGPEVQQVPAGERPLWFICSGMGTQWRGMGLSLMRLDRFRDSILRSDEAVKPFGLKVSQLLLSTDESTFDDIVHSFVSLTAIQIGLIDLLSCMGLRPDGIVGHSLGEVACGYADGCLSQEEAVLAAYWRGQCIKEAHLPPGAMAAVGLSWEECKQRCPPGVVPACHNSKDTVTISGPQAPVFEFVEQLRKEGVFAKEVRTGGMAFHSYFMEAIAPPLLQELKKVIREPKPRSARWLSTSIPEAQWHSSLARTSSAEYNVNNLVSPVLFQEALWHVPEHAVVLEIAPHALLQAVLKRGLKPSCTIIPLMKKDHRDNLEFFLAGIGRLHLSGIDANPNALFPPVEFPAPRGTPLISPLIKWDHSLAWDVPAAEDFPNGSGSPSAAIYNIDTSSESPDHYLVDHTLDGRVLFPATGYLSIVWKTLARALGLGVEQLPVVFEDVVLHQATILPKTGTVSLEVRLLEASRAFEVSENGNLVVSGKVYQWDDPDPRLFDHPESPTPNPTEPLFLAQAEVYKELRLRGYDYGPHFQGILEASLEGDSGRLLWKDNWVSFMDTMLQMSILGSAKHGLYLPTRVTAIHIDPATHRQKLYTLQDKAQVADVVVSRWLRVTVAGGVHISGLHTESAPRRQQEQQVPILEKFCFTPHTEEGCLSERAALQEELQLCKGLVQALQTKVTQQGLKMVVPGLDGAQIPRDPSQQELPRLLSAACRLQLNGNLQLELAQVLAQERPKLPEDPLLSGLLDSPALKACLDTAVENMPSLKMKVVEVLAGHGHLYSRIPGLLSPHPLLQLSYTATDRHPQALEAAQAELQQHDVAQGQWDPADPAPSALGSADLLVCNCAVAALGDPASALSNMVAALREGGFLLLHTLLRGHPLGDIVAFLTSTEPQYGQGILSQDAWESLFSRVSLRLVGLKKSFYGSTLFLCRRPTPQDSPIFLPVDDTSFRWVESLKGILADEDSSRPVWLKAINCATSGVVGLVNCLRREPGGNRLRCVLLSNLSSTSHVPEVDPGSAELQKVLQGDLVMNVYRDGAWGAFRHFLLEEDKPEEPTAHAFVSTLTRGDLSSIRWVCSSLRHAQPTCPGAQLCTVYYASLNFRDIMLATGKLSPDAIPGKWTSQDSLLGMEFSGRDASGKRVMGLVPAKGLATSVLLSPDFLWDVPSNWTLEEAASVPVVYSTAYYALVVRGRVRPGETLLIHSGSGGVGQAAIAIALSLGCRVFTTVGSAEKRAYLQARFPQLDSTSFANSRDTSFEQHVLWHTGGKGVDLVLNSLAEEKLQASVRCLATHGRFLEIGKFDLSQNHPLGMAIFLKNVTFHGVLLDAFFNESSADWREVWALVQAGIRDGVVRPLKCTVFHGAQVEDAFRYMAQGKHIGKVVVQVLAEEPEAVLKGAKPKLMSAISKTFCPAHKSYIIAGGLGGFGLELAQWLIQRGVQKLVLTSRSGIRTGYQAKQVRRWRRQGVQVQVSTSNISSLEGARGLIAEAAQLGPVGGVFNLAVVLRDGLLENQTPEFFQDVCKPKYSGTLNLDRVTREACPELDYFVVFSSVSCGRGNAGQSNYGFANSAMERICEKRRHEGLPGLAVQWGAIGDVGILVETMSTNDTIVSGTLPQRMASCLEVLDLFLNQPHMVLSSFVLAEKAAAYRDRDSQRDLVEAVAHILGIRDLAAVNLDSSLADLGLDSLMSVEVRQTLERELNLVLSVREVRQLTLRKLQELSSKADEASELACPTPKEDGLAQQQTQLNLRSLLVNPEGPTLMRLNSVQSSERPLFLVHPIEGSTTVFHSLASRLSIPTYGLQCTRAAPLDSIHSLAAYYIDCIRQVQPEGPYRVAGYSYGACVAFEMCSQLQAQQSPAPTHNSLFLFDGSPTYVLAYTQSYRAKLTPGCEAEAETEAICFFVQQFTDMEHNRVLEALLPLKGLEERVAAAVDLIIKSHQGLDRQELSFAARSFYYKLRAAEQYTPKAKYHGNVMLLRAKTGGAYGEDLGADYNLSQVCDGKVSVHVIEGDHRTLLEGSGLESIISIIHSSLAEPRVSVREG
UniProt O75369, whole entry, looked up: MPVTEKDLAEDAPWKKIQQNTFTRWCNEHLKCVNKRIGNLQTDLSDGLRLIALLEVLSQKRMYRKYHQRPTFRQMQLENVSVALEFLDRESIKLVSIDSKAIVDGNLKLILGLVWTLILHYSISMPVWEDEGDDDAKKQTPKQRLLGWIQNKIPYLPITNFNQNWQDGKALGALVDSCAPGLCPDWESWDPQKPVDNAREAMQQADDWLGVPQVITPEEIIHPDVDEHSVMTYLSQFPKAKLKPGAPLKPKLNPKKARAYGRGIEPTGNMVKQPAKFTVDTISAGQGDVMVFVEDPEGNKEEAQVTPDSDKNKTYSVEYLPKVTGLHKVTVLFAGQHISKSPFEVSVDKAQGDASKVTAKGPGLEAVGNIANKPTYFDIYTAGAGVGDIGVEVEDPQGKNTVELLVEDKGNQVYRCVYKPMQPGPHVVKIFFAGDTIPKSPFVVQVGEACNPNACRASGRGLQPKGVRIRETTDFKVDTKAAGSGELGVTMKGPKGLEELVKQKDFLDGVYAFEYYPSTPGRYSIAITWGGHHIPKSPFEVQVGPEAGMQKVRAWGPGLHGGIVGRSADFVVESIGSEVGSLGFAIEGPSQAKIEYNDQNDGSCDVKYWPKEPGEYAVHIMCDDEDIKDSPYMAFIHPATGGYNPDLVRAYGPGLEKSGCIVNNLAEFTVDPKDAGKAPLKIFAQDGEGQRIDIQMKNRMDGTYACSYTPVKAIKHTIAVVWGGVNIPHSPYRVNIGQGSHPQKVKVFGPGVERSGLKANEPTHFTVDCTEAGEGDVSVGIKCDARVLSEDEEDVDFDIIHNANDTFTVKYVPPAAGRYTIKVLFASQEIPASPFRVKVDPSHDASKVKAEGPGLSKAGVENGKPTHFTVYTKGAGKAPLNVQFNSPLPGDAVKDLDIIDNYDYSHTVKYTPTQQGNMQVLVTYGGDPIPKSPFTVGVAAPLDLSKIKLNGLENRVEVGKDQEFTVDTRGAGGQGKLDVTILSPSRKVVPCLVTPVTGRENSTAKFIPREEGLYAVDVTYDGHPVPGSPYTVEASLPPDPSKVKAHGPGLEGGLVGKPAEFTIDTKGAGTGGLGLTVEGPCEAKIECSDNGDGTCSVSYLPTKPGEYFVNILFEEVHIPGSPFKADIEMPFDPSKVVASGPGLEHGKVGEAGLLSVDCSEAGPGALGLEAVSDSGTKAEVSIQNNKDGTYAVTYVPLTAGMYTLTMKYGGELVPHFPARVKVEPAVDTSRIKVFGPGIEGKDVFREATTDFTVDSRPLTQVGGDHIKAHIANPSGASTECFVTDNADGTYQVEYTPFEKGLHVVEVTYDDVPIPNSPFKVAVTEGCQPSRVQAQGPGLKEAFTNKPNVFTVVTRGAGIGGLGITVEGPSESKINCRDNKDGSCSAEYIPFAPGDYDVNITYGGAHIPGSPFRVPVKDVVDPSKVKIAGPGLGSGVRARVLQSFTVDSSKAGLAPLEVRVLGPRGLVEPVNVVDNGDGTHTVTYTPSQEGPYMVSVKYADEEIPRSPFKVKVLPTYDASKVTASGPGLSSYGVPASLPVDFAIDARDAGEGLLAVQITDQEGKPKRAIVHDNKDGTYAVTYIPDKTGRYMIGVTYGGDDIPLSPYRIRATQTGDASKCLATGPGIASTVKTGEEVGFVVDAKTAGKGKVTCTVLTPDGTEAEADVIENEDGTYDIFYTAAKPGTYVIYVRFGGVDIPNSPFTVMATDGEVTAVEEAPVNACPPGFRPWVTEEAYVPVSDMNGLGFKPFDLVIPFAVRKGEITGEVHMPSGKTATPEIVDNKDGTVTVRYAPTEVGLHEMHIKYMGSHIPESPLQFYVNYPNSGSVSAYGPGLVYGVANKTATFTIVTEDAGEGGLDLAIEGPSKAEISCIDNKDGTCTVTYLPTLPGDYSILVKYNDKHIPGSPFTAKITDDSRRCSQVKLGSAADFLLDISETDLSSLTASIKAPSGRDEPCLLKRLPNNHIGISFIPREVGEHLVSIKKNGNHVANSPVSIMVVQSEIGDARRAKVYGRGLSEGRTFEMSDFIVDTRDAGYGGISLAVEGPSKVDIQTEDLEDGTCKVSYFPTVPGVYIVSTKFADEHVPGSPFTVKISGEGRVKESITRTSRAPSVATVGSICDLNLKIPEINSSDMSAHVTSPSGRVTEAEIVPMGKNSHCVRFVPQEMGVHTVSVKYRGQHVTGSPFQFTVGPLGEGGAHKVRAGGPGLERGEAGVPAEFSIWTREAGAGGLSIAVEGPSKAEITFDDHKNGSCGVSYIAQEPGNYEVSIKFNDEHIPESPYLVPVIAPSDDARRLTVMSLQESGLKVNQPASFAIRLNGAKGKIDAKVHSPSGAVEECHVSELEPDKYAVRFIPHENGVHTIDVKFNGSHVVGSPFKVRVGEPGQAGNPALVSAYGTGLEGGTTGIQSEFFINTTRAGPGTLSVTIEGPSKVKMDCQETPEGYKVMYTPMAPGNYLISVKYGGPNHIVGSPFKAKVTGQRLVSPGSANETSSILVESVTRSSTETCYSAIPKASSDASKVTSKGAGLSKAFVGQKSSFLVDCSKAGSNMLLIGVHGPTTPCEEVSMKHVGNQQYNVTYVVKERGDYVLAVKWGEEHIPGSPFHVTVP

What was measured:
Assay in all cases: log2 fold change, soluble protein after heating vs DMSO (PISA); higher = thermal stabilisation; K562 cells, 10 uM, 30 min; active = over 0.2 and 3.5 SD of the protein, either way, in both replicates (recomputed)
[1] = compound: NC(=O)Nc1cc(-c2cccc(F)c2)sc1C(=O)N[C@H]1CCCNC1
In short: (§1)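 Thermal stability values are relative to control samples and come from duplicates. They are expressed as log2 fold changes. For measurement, K562 cells (2×10^6 cells/mL) received 10 μM compound for 30 min, and aliquots were heated for 3 min over 48°C-58°C, pooled, and extracted at 4°C in PBS with 0.5% NP-40. Soluble protein, the supernatant after 21,000xg for 90 min, was quantified by TMTpro 16plex LC-MS/MS with equalised channel sums.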

[2] = compound: NC(=O)c1cnc(N[C@@H]2CCCC[C@@H]2N)nc1Nc1cccc(-n2nccn2)c1
In short: as §1

[3] = compound: NC1(c2ccc(-c3nc4ccn5c(=O)[nH]nc5c4cc3-c3ccccc3)cc2)CCC1
In short: as §1

[4] = compound: NCC(=O)Nc1ccc(-n2nc(C(F)(F)F)cc2-c2ccc3c(ccc4ccccc43)c2)cc1
In short: as §1

entinostat = compound: Nc1ccccc1NC(=O)c1ccc(CNC(=O)OCc2cccnc2)cc1 [entinostat]
In short: as §1

vorinostat = compound: O=C(CCCCCCC(=O)Nc1ccccc1)NO [vorinostat]
In short: as §1

citarinostat = compound: O=C(CCCCCCNC(=O)c1cnc(N(c2ccccc2)c2ccccc2Cl)nc1)NO [citarinostat]
In short: as §1

silmitasertib = compound: O=C(O)c1ccc2c(c1)nc(Nc1cccc(Cl)c1)c1ccncc12 [silmitasertib]
In short: as §1

[5] = compound: O=C1NC(=O)C(c2cnc3ccccn23)=C1c1cn2c3c(cc(F)cc13)CN(C(=O)N1CCCCC1)CC2
In short: as §1

[6] = compound: c1cc(OCCN2CCCCC2)cc(-c2n[nH]c3ccc(-c4nnc[nH]4)cc23)c1
In short: as §1

entospletinib = compound: c1cn2cc(-c3ccc4cn[nH]c4c3)nc(Nc3ccc(N4CCOCC4)cc3)c2n1 [entospletinib]
In short: as §1

Target	log2 fold change [1]	log2 fold change [2]	log2 fold change [3]	log2 fold change [4]	log2 fold change (entinostat)	log2 fold change (vorinostat)	log2 fold change (citarinostat)	log2 fold change (silmitasertib)	log2 fold change [5]	log2 fold change [6]	log2 fold change (entospletinib)
FLYWCH2 (UniProt Q96CP2)	inactive: -0.027	inactive: 0.073	inactive: 0.039	inactive: 0.021	inactive: 0.01	inactive: 0.076	inactive: 0.025	inactive: 0.006	inactive: -0.026	inactive: 0.012	inactive: -0.085
FNTA (UniProt P49354)	inactive: 0.009	inactive: 0.061	inactive: 0.028	inactive: 0	inactive: -0.02	inactive: 0.004	inactive: -0.02	inactive: 0.016	inactive: -0.001	active: 0.696	–
FN3K (UniProt Q9H479)	inactive: 0.139	inactive: 0.003	inactive: 0.022	inactive: 0.02	inactive: 0.02	inactive: -0.01	inactive: 0.008	inactive: -0.026	inactive: -0.046	inactive: 0.028	inactive: 0.001
FAM91A1 (UniProt Q658Y4)	inactive: -0.009	inactive: -0.061	inactive: -0.08	inactive: -0.042	inactive: -0.003	inactive: 0.004	inactive: -0.003	inactive: 0.073	inactive: -0.346	inactive: -0.084	–
FARS2 (UniProt O95363)	inactive: -0.006	inactive: 0.003	inactive: -0.222	inactive: 0.012	inactive: 0.028	inactive: 0.073	inactive: 0.022	inactive: -0.027	inactive: -0.11	inactive: 0.005	–
FAR1 (UniProt Q8WVX9)	inactive: -0.03	inactive: -0.003	inactive: 0.027	inactive: -0.084	inactive: -0.017	inactive: 0.012	inactive: 0.044	inactive: -0.051	inactive: -0.135	inactive: 0.111	inactive: -0.051
FDFT1 (UniProt P37268)	inactive: 0.044	inactive: 0.064	inactive: -0.042	inactive: 0.035	inactive: -0.008	inactive: -0.018	inactive: 0.086	inactive: -0.031	inactive: 0.004	inactive: 0.093	–
FEN1 (UniProt P39748)	inactive: -0.022	inactive: -0.154	inactive: -0.28	inactive: -0.157	inactive: 0.034	inactive: 0.246	inactive: 0.111	inactive: -0.1	inactive: -0.129	inactive: 0.035	–
FASN (UniProt P49327)	inactive: 0.002	inactive: -0.051	inactive: -0.106	inactive: -0.022	inactive: -0.01	inactive: 0.011	inactive: 0.052	inactive: 0	inactive: -0.037	inactive: -0.009	inactive: -0.016
FHL3 (UniProt Q13643)	inactive: -0.022	inactive: -0.002	inactive: 0.001	inactive: -0.004	inactive: -0.032	inactive: -0.042	inactive: 0.002	inactive: -0.011	inactive: -0.057	inactive: -0.025	inactive: 0.033
FCHO2 (UniProt Q0JRZ9)	inactive: -0.087	inactive: -0.17	inactive: -0.116	inactive: -0.055	inactive: -0.096	inactive: 0.106	inactive: 0.016	inactive: -0.205	inactive: 0.081	inactive: -0.058	inactive: 0.111
FLOT1 (UniProt O75955)	inactive: -0.054	inactive: -0.078	inactive: -0.165	inactive: -0.065	inactive: 0.105	inactive: -0.047	inactive: -0.009	inactive: 0.1	inactive: 0.1	inactive: -0.145	inactive: 0.173
FEM1B (UniProt Q9UK73)	inactive: -0.052	inactive: -0.028	inactive: -0.065	inactive: -0.086	inactive: 0.008	inactive: 0.012	inactive: 0.017	inactive: 0.011	inactive: -0.022	inactive: -0.063	inactive: -0.057
FLOT2 (UniProt Q14254)	inactive: -0.029	inactive: -0.069	inactive: -0.054	inactive: 0.041	inactive: 0.033	inactive: -0.057	inactive: 0.021	inactive: 0.128	inactive: 0.095	inactive: -0.093	inactive: 0.113
FLT4 (UniProt P35916)	inactive: -0.051	inactive: 0.014	inactive: -0.008	inactive: 0.022	inactive: -0.019	inactive: 0	inactive: -0.06	inactive: -0.002	inactive: -0.074	inactive: 0.029	inactive: -0.058
FAU (UniProt P62861)	inactive: 0.069	inactive: 0.097	inactive: 0.286	inactive: 0.141	inactive: -0.104	inactive: -0.015	inactive: -0.176	inactive: 0.111	inactive: 0.099	inactive: -0.185	inactive: 0.137
FASTKD2 (UniProt Q9NYY8)	inactive: -0.034	inactive: -0.049	inactive: -0.131	inactive: -0.059	inactive: 0.017	inactive: 0.064	inactive: 0.042	inactive: 0.018	inactive: 0.003	inactive: -0.017	inactive: -0.019
FAM98B (UniProt Q52LJ0)	inactive: 0.127	inactive: 0.031	inactive: -0.095	inactive: 0.093	inactive: -0.006	inactive: 0.077	inactive: -0.024	inactive: 0.075	inactive: 0.123	inactive: -0.122	inactive: 0.058
FN1 isoform 1 (UniProt P02751)	inactive: -0.029	inactive: -0.029	inactive: 0.008	inactive: 0.038	inactive: -0.014	inactive: 0.217	inactive: -0.035	inactive: 0.088	inactive: 0.095	inactive: 0.066	inactive: 0.171
FKBP15 (UniProt Q5T1M5)	inactive: 0.01	inactive: -0.081	inactive: -0.048	inactive: -0.106	inactive: 0.082	inactive: 0.091	inactive: 0.027	inactive: 0.071	inactive: 0.075	inactive: -0.077	inactive: 0.007
FBLN1 (UniProt P23142)	inactive: -0.103	inactive: -0.011	inactive: 0.125	inactive: -0.058	inactive: -0.057	inactive: 0.05	inactive: -0.068	inactive: 0.192	inactive: 0.108	inactive: 0.506	inactive: 0.178
FAM8A1 (UniProt Q9UBU6)	inactive: 0.006	inactive: -0.058	inactive: 0.07	inactive: -0.067	inactive: -0.006	inactive: 0.033	inactive: -0.004	inactive: -0.034	inactive: -0.119	inactive: -0.014	inactive: 0.014
FAM210A (UniProt Q96ND0)	inactive: -0.063	inactive: -0.095	inactive: 0.048	inactive: 0.017	inactive: -0.048	inactive: -0.05	inactive: 0.025	inactive: -0.042	inactive: -0.023	inactive: -0.069	inactive: 0.039
FAM49B (UniProt Q9NUQ9)	inactive: -0.035	inactive: -0.023	inactive: -0.093	inactive: -0.028	inactive: -0.031	inactive: 0.025	inactive: 0.017	inactive: 0.014	inactive: -0.02	inactive: -0.017	inactive: 0.023
FCGR2C (UniProt P31995)	inactive: -0.092	inactive: 0.074	inactive: 0.098	inactive: 0.05	inactive: -0.019	inactive: -0.052	inactive: 0.038	inactive: -0.051	inactive: -0.03	inactive: -0.065	inactive: 0.03
FKBP8 isoform 2 (UniProt Q14318)	inactive: -0.007	inactive: -0.027	inactive: 0.005	inactive: 0.035	inactive: 0.017	inactive: 0.085	inactive: 0.046	inactive: 0.062	inactive: 0.137	inactive: -0.128	inactive: 0.036
FLNB isoform 8 (UniProt O75369)	inactive: -0.043	inactive: -0.049	inactive: -0.058	inactive: -0.039	inactive: 0.014	inactive: 0.012	inactive: 0.01	inactive: 0.036	inactive: -0.032	inactive: -0.024	inactive: 0.046
FBXO5 (UniProt Q9UKT4)	inactive: -0.046	inactive: -0.03	inactive: -0.021	inactive: 0.01	inactive: -0.007	inactive: -0.024	inactive: 0.059	inactive: 0.101	inactive: 0.015	inactive: -0.005	inactive: -0.025

Quoted at random: two records from the list
Target	log2 fold change [1]	log2 fold change [2]	log2 fold change [3]	log2 fold change [4]	log2 fold change (entinostat)	log2 fold change (vorinostat)	log2 fold change (citarinostat)	log2 fold change (silmitasertib)	log2 fold change [5]	log2 fold change [6]	log2 fold change (entospletinib)
FLOT1 (UniProt O75955)	inactive: -0.054	inactive: -0.078	inactive: -0.165	inactive: -0.065	inactive: 0.105	inactive: -0.047	inactive: -0.009	inactive: 0.1	inactive: 0.1	inactive: -0.145	inactive: 0.173
FCHO2 (UniProt Q0JRZ9)	inactive: -0.087	inactive: -0.17	inactive: -0.116	inactive: -0.055	inactive: -0.096	inactive: 0.106	inactive: 0.016	inactive: -0.205	inactive: 0.081	inactive: -0.058	inactive: 0.111
